# The list shows a part of the results.
# B1: SspB C123 (Streptococcus gordonii), Q54186 (protein)
# chain: MAHFHYSSLLAQPQINKEIKNEDGVDIDRTLVAKQSIGKFELKTEALTAGRPKTTSFVLVDPLPTGYKFDLDATKAASTGFDTTYDEASHTVTFKATDETLATYNADLTKPVETLHPTVVGRVLNDGATYTNNFTLTVNDAYGIKSNVVRVTTPGKPNDPDNPNNNYIKPTKVNKNKEGLNIDGKEVLAGSTNYYELTWDLDQYKGDKSSKEAIQNGFYYVDDYPEEALDVRPDLVKVADEKGNQVSGVSVQQYDSLEAAPKKVQDLLKKANITVKGAFQLFSADNPEEFYKQYVSTGTSLVITDPMTVKSEFGKTGGKYENKAYQIDFGNGYATEVVVNNVPKITPKKDVTVSLDPTSENLDGQTVQLYQTFNYRLIGGFIPQNHSEELEDYSFVDDYDQAGDQYTGNYKTFSSLNLTMKDGSVIKAGTDLTSQTTAETDATNGIVTVRFKEDFLQKISLDSPFQAETYLQMRRIAIGTFENTYVNTVNKVAYASAAALEHHHHHH
# Experiments:
# Assay in all cases: glycan array binding signal (z-score within array); higher = stronger binding
# Settings in all cases: glycan notation: IUPAC condensed, linker removed
# [1] = target: Gal(b1-4)GlcNAc(b1-3)Gal(b1-4)GlcNAc(b1-6)[Gal(b1-3)]GalNAc
# Summary of the method: (§1)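 Glycan array data came from 3228 arrays in the Consortium for Functional Glycomics database, and only arrays with an available protein sequence were kept. Glycan names were put into IUPAC-condensed notation, and columns mapping to the same glycan were averaged. The binding signal is a within-array Z-score, averaged across arrays of one protein sequence run at different concentrations or buffers and across linkers. A negative Z-score can be read as non-binding.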
# [2] = target: Gal(b1-4)GlcNAc(b1-3)Gal(b1-4)[Fuc(a1-3)]GlcNAc(b1-3)Gal(b1-4)[Fuc(a1-3)]GlcNAc
# Summary of the method: as §1
# [3] = target: Gal(b1-4)GlcNAc(b1-3)GalNAc
# Summary of the method: as §1
# [4] = target: Gal(b1-4)GlcNAc(b1-3)[Fuc(a1-3)GlcNAc(b1-6)]Gal(b1-4)Glc
# Summary of the method: as §1
# [5] = target: Gal(b1-4)GlcNAc(b1-3)[Gal(b1-4)GlcNAc(b1-6)]Gal(b1-4)GlcNAc
# Summary of the method: as §1
# [6] = target: Gal(b1-4)GlcNAc(b1-3)[GlcNAc(b1-6)]Gal(b1-4)GlcNAc
# Summary of the method: as §1
# [7] = target: Gal(b1-4)GlcNAc(b1-6)Gal(b1-4)GlcNAc
# Summary of the method: as §1
# [8] = target: Gal(b1-4)GlcNAc(b1-6)GalNAc
# Summary of the method: as §1
# [9] = target: Gal(b1-4)GlcNAc(b1-6)[Gal(b1-3)]GalNAc
# Summary of the method: as §1
# [10] = target: Gal(b1-4)GlcNAc(b1-6)[Gal(b1-4)GlcNAc(b1-3)]GalNAc
# Summary of the method: as §1
# [11] = target: Gal(b1-4)GlcNAc6P
# Summary of the method: as §1
# [12] = target: Gal(b1-6)Gal
# Summary of the method: as §1
# [13] = target: Gal3S(b1-3)GalNAc
# Summary of the method: as §1
# [14] = target: Gal3S(b1-3)GlcNAc
# Summary of the method: as §1
# [15] = target: Gal3S(b1-3)[Fuc(a1-4)]GlcNAc
# Summary of the method: as §1
# [16] = target: Gal3S(b1-4)Glc
# Summary of the method: as §1
# [17] = target: Gal3S(b1-4)Glc6S
# Summary of the method: as §1
# [18] = target: Gal3S(b1-4)GlcNAc
# Summary of the method: as §1
# [19] = target: Gal3S(b1-4)[Fuc(a1-3)]Glc6S
# Summary of the method: as §1
# [20] = target: Gal3S(b1-4)[Fuc(a1-3)]GlcNAc
# Summary of the method: as §1
# [21] = target: Gal3S(b1-4)[Fuc(a1-3)]GlcNAc6S
# Summary of the method: as §1
# [22] = target: Gal3S4S(b1-4)GlcNAc
# Summary of the method: as §1
# [23] = target: Gal3S6S(b1-4)GlcNAc
# Summary of the method: as §1
# [24] = target: Gal3S6S(b1-4)GlcNAc6S
# Summary of the method: as §1
# [25] = target: Gal4S(b1-4)GlcNAc
# Summary of the method: as §1
# [26] = target: Gal4S6S(b1-4)GlcNAc
# Summary of the method: as §1
# [27] = target: Gal6P(b1-4)GlcNAc
# Summary of the method: as §1
# [28] = target: Gal6S(b1-3)GlcNAc
# Summary of the method: as §1
# [29] = target: Gal6S(b1-3)GlcNAc6S
# Summary of the method: as §1
# [30] = target: Gal6S(b1-4)Glc
# Summary of the method: as §1
# [31] = target: Gal6S(b1-4)Glc6S
# Summary of the method: as §1
# [32] = target: Gal6S(b1-4)GlcNAc
# Summary of the method: as §1
# [33] = target: Gal6S(b1-4)GlcNAc6S
# Summary of the method: as §1
# [34] = target: GalNAc(a1-3)Gal
# Summary of the method: as §1
# [35] = target: GalNAc(a1-3)GalNAc
# Summary of the method: as §1
# [36] = target: GalNAc(a1-3)GalNAc(a1-3)Gal(a1-4)Gal(b1-4)GlcNAc
# Summary of the method: as §1
# [37] = target: GalNAc(a1-3)GalNAc(b1-3)Gal(a1-4)Gal(b1-4)Glc
# Summary of the method: as §1
binder,measurement,setting,value
B1,glycan array binding signal (z-score),[1],0.953
same,glycan array binding signal (z-score),[2],-0.759
same,glycan array binding signal (z-score),[3],0.085
same,glycan array binding signal (z-score),[4],-1.21
same,glycan array binding signal (z-score),[5],0.15
same,glycan array binding signal (z-score),[6],0.826
same,glycan array binding signal (z-score),[7],-0.52
same,glycan array binding signal (z-score),[8],0.597
same,glycan array binding signal (z-score),[9],0.155
same,glycan array binding signal (z-score),[10],-0.8
same,glycan array binding signal (z-score),[11],-0.006
same,glycan array binding signal (z-score),[12],-0.548
same,glycan array binding signal (z-score),[13],0.761
same,glycan array binding signal (z-score),[14],0.104
same,glycan array binding signal (z-score),[15],0.284
same,glycan array binding signal (z-score),[16],1.06
same,glycan array binding signal (z-score),[17],0.314
same,glycan array binding signal (z-score),[18],0.468
same,glycan array binding signal (z-score),[19],5.71
same,glycan array binding signal (z-score),[20],0.31
same,glycan array binding signal (z-score),[21],-0.848
same,glycan array binding signal (z-score),[22],-1.45
same,glycan array binding signal (z-score),[23],-0.215
same,glycan array binding signal (z-score),[24],0.951
same,glycan array binding signal (z-score),[25],0.608
same,glycan array binding signal (z-score),[26],-1.05
same,glycan array binding signal (z-score),[27],-0.314
same,glycan array binding signal (z-score),[28],-1.3
same,glycan array binding signal (z-score),[29],-1.61
same,glycan array binding signal (z-score),[30],0.321
same,glycan array binding signal (z-score),[31],-0.505
same,glycan array binding signal (z-score),[32],-1.08
same,glycan array binding signal (z-score),[33],1.05
same,glycan array binding signal (z-score),[34],0.05
same,glycan array binding signal (z-score),[35],-0.525
same,glycan array binding signal (z-score),[36],-1.11
same,glycan array binding signal (z-score),[37],-0.693

# Two entries picked at random from the list so far, as already listed:
binder,measurement,setting,value
B1,glycan array binding signal (z-score),[27],-0.314
same,glycan array binding signal (z-score),[19],5.71

# From the supplement of paper PMC8728848
